Measurements from patent publication US20250115595A1, “INHIBITORS OF HYPOXIA-INDUCIBLE FACTORS” (The Johns Hopkins University, priority 2021, published 2025).
At least one read-out could not be matched to a standard name with certainty.

Assay: Mouse pharmacokinetics in neurosensory retina after intraocular injection
Type: in vivo
Description: Pharmacokinetic analysis of 32-134D in the neurosensory retina following intraocular administration was determined by liquid chromatography and tandem mass spectrometry (LC-MS/MS) to quantify the concentration of 32-134D in retinal tissue over 14 days following a single 70-ng intraocular injection of 32-134D (see Methods of all parameters). […] The total exposure (area under the curve or AUClast) was 72.3 nmol*day/g.
Mouse pharmacokinetics: C57BL/6 mice were administered 32-134D at 70 ng or 280 ng as a single intraocular injection. Mice (at least 3 mice per time point) were euthanized at 1, 3, 7, or 14 days after injection. For the 280-ng dose, a 10-day time point was added. 32-134D was quantified in retina by LC-MS/MS as previously described (S. Salman et al., 2022, J Clin Invest 132) with the following modifications. […] Retina tissue samples were then quantitated in nmol/g as: nominal concentration (nM)×initial dilution ([tissue weight (mg)+volume of solvent (μl)]/tissue weight (mg)). […]
Pharmacokinetic parameters: These were calculated from mean concentration-time data using noncompartmental methods in Phoenix WinNonlin version 8.3 (Certara, Princeton, NJ, USA). […] The AUClast was calculated using the log-linear trapezoidal method to the last quantifiable time point. […] The T1/2 was determined by dividing 0.693 by az. […]

In the case of Brc1ccc2c(-c3csc(-c4c[nH]c5c(Br)cccc45)n3)c[nH]c2c1 [Compound 32-134D, 4-(6-bromo-1H-indol-3-yl)-2-(7-bromo-1H-indol-3-yl)thiazole], the “maximum concentration (Cmax) in neurosensory retina” value (single 70-ng intraocular injection) is reported as 19.1 nmol/g and the “Cmax in neurosensory retina” value (single intraocular injection 280 ng) is reported as 18 nmol/g.
